Percent effect of library compounds

Results are given as percent effect. The controls that fix the scale are not given in the record; negative values are as filed. Compounds were drawn at random from those tested, without regard to their results. Two or more numbers in one place are separate tests of the same structure; such repeats can differ widely.

Mtb glucose medium: 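Whole-cell growth test on Mycobacterium tuberculosis, read after 3 days in glucose-containing 7H9 medium; the read-out is not stated. Tested at 50 µM. Direction is inferred from retests: higher values go with more growth inhibition. About 69,000 compounds were tested under these conditions; 1.1% (about 760) showed 50% or more at least once.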
Mtb cholesterol medium: 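Phenotypic screen: M. tuberculosis growth, cholesterol and DPPC medium, 4 days; the read-out is not stated. Compounds at 50 µM. Higher reads as more growth inhibition (inferred: compounds with an IC50 in retests scored well above the rest). About 69,000 compounds were tested under these conditions; 0.54% (about 370) showed 50% or more at least once.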

Compound,Mtb glucose medium,Mtb cholesterol medium
CN(Cc1cccc2ncccc12)C(=O)CCn1ccc(=O)[nH]c1=O,4.527% & -10.66%,-8.433% & -9.224%
O=C(Nc1cnc(C2CC2)nc1)N1CCC(CN2CCCC2)C1 (centres unmarked),-2.413%,-5.653% & -7.148%
Cc1cccc(-c2nc(N)nc3c2CN(C(=O)c2ccncn2)C3C)c1 (centres unmarked),-5.315% & -2.001%,-10.68%
O=C(Cc1ccccc1Cl)N1CCCC(n2cncn2)C1 (centres unmarked),-5.954%,-1.559%
Cc1n[nH]c(C2CN(Cc3csc(C4CCCCC4)n3)CCO2)n1 (centres unmarked),14.38%,10.26%
O=C(NCCSCc1ccc(Br)s1)C1CCCN(C(=O)c2cccs2)C1 (centres unmarked),30.97%,-5.735%
COc1c(CNC(c2ccccc2F)c2nccn2C)c(C)nn1C (centres unmarked),29.45%,7.092%
COc1ccc(C(CO)NC(=O)Nc2cccc(C#N)c2)cc1 (centres unmarked),12.66%,12.61%
Cc1cc(NC(=O)Cn2ccc(-c3ccc4c(c3)OCO4)n2)n(C)n1,-22.57%,-6.816%
Cn1cc(CC2CC(=O)N(Cc3ccc(Cl)cc3)C2=O)cn1 (centres unmarked),-12.01%,-14.65%
O=S(=O)(NCCCN1CCCC1)c1cc(F)cc(F)c1,-25.65% & -1.335%,-3.199%
O=C(NCCn1nc(-n2cncn2)ccc1=O)c1ccsc1,0.4645%,-5.235%
Cc1cc(C)n(C2CN(CC(=O)NCC(C)(C)N3CCOCC3)C2)n1,8.257%,2.69%
COc1ccccc1OC1CN(C(=O)Cc2c(C)nc3ccccn23)C1,7.919%,22.05%
COc1ccc(CC(=O)N2CCC(c3nncn3C)CC2)cc1F,-35.9%,-10.53% & 3.703%
CN(C)C(=O)C1CN(Cc2ccccn2)CCN(S(C)(=O)=O)C1 (centres unmarked),10.35%,8.749%
CCc1ccc2nc(C)cc(C(=O)NC3CCCCNC3=O)c2c1 (centres unmarked),6.497% & 6.158%,12.04%
c1cnc(NCc2noc3c2CN(C2CCOCC2)CC3)nc1,8.541%,5.067%
Cn1nc(COc2cncnc2)c2c1CCN(Cc1ccco1)C2.O=C(O)C(F)(F)F,-23.09%,12.79%
CC(C)[C@H]1COC(=O)N1CC(=O)N1CCCN(C(=O)c2ccoc2)CC1,-37.92% & -2.005%,18.16%
N#Cc1ccc(OC2CCN(CC(=O)NCC3CCCO3)CC2)cc1 (centres unmarked),9.396%,21.19%
O=C(c1ncn2c(C3CCN(CC4CC4)CC3)ccnc12)N1CCCC1,-4.81% & 0.249%,11.81%
[H][C@]12CCC[C@@]1(COCC(=O)N1CCCC1)CN(Cc1cc(C)on1)C2,-1.992%,-10.39%
O=C(NCc1ccccc1-n1cccn1)N1CCN2CCCCC2C1 (centres unmarked),15.72%,13.33%
CCC[C@@H]1CN(C(=O)c2cc3ccccc3s2)C[C@H]1NS(C)(=O)=O,6.427% & 2.189%,6.261%
Cc1noc(C)c1NS(=O)(=O)c1cc(C(=O)O)cc(Cl)c1Cl,8.242%,1.861%
CCN(CC)C(=O)[C@@H]1C[C@@H](NC(=O)c2cccc(N(C)C)c2)CN1C,-25.53%,-32.69%
CCc1nc2ccccc2n1C(CC)C(=O)N(C)CCc1noc(C)n1 (centres unmarked),-8.656%,-3.744%
CN(C)CC(=O)N1CCOCC2(C1)CN(c1ccccc1)C(=O)CO2 (centres unmarked),1.009%,-16.06%
COCc1nc(CNC2CCC3(CCNCC3)CC2)no1,-14.43%,-7.777%
O=C(O)C(F)(F)F.[H][C@@]12CCN(c3nnc(C)s3)C[C@]1([H])O[C@H](C(=O)N1CCCC1)C2,-28.24%,-8.12% & -23.54%
O=C(CCc1cc2n(n1)CCCN(C(=O)c1ccncc1)C2)NC1CC1,-3.762%,-1.63%
Cc1ccc2cccc(C(=O)NCCOCC3CC3)c2n1,-13.68%,-22.1%
Cc1cc(N2CCC(NS(C)(=O)=O)CC2)nc(C(C)C)n1,-0.6129%,10.61%
CCC(CO)N(Cc1cccs1)C(=O)CNS(=O)(=O)c1cccs1 (centres unmarked),28.89%,5.71%
CC(=O)Nc1nc(C(=O)NCCOc2cccc(C)c2)cs1,7.095%,6.3% & 10.46%
CNC(=O)CCc1cc(C2CCNCC2)nc(C)n1.Cl.Cl,-1.318%,4.854%
CN(C)c1ncc(-c2ccc(F)cc2)c(C2CNCCO2)n1.Cl (centres unmarked),-6.655%,6.482% & 9.13%
CCS(=O)(=O)N1CCC(c2nc(C)c(C)c(N3CCCC3)n2)CC1,-4.3%,11.97% & -1.893%
CC(CCc1ccc(F)c(F)c1)NS(=O)(=O)Cc1ccon1 (centres unmarked),-14.4%,2.354%
O=C(O)C(F)(F)F.[H][C@@]12CCCO[C@]1([H])[C@H](NC(=O)c1cnoc1C)CN(c1ncccn1)C2,-4.582% & -9.883%,-11.02%
Cc1ccc(CN2CCc3c(COC(C)C)nn(C)c3C2)s1.O=C(O)C(F)(F)F,-17.65%,11.37%
[H][C@@]12CCN(CCOC)C[C@@]1([H])[C@H](C(=O)Nc1cccnc1)CCO2,-8.933%,-22.36%
CC(C)[C@H](N)c1nnc(SCC(=O)Nc2ccc(Br)cc2)o1.Cl,11.07%,-3.31%

Once more, the final 3:

With Cc1ccc(CN2CCc3c(COC(C)C)nn(C)c3C2)s1.O=C(O)C(F)(F)F the screen gave Mtb glucose medium: -17.65%; Mtb cholesterol medium: 11.37%.
With [H][C@@]12CCN(CCOC)C[C@@]1([H])[C@H](C(=O)Nc1cccnc1)CCO2 the screen gave Mtb glucose medium: -8.933%; Mtb cholesterol medium: -22.36%.
With CC(C)[C@H](N)c1nnc(SCC(=O)Nc2ccc(Br)cc2)o1.Cl the screen gave Mtb glucose medium: 11.07%; Mtb cholesterol medium: -3.31%.

From ChEMBL document CHEMBL3988442, “University of Dundee, Small-Polar-MMV Screening Library” (2021).